Measurements: publication PMC7862700
Only a part is listed here, and it is no random draw. For some of these results: At the low end of the ranking the order means little. This is one part of the list. For some of these results: The exact form of the protein is not confirmed.

The chains behind the UniProt entries cited, without tags or fusion partners. Where a name states a change or a piece, a line headed by the entry shows the natural chain unless it says otherwise.
UniProt Q00613: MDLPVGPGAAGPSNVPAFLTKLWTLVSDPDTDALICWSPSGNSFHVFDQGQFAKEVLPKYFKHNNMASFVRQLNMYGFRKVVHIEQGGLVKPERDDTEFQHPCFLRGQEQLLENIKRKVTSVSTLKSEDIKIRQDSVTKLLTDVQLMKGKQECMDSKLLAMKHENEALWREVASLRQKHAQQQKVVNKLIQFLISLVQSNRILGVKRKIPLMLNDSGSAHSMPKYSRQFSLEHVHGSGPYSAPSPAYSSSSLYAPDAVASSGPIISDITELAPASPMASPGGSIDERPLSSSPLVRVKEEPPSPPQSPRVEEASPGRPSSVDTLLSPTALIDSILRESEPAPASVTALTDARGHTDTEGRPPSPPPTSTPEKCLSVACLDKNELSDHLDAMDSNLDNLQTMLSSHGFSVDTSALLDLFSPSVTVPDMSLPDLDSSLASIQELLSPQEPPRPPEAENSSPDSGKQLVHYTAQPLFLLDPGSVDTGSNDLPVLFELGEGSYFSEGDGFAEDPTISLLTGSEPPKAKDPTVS

What follows are sequences tested against HSF1 (UniProt Q00613) (assay: DAPPL (digital affinity profiling via proximity ligation, sequencing)). Details: 10 mM Tris-HCl pH 7.5, 50 mM NaCl, 1 mM DTT, 4% glycerol, room temperature, 30 min; GST-TFs on glutathione beads, 16-mer random dsDNA library, 0.1% …; high values mean tight binding; double strand, one strand shown; scale: fold enrichment (6-mer frequency, TF over GST control).

Sequence | binding signal
TCAGAG | 0.755
GACGAA | 0.935
GGGGTT | 0.806
AGACCA | 0.611
GTAAGT | 0.751
CATGAG | 0.594
GGAACC | 0.715
GTGGGT | 0.37
GATAGA | 0.953
GCGCTG | 0.681
ACGGAG | 0.316
GACGGG | 0.369
CAGGGA | 0.505
AGCCGA | 0.91
TAGAGT | 0.901
AGGCGT | 0.439
ACAGTC | 0.416
CAGTAA | 0.823
CGGGTA | 0.677

Sequence | binding signal
ACGGGG | 0.606
GCGGGC | 0.535
GTCGTA | 0.525
GGGAAT | 1.09
GAGGTA | 0.562
AGTCAA | 0.538
TGAGCG | 0.57
CGGGGC | 0.454
GTAGGC | 0.599
AAGCCA | 0.935
AGTCCA | 0.68
ACAGTG | 0.436
AGCGAG | 0.627
CTAGAG | 1.58
CACAGA | 0.889
GCGCGG | 0.684
TGGGGA | 0.789
TAGTCG | 0.523
GTTAGG | 0.696

What follows are sequences tested against T1, ELF2 (UniProt Q15723) in the same assay as above. Details: 10 mM Tris-HCl pH 7.5, 50 mM NaCl, 1 mM DTT, 4% glycerol, room temperature, 30 min; GST-TFs on glutathione beads, 16-mer random dsDNA library, 0.1% …; high values mean tight binding; double strand, one strand shown; scale: fold enrichment (6-mer frequency, TF over GST control).
T1 sequence: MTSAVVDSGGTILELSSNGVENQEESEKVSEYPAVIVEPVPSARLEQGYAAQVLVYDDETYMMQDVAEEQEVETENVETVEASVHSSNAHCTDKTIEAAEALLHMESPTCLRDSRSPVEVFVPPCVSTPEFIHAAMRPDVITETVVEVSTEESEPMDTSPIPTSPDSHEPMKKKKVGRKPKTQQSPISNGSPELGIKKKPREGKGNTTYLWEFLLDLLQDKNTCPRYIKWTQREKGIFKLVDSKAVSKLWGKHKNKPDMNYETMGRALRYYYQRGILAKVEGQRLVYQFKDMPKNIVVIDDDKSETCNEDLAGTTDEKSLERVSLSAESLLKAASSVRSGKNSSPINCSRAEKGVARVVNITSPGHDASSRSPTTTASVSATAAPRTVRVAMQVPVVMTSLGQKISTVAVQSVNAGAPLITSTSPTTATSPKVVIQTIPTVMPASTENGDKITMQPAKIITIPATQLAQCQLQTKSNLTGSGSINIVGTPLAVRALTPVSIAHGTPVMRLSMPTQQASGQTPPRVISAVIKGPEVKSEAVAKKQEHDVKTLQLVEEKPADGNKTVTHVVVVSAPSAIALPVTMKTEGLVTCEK

Sequence | binding signal
TCAGAG | 0.693
GACGAA | 0.858
GGGGTT | 0.851
AGACCA | 0.608
GTAAGT | 0.752
CATGAG | 0.625
GGAACC | 1
GTGGGT | 0.453
GATAGA | 0.752
GCGCTG | 0.813
ACGGAG | 0.359
GACGGG | 0.424
CAGGGA | 0.503
AGCCGA | 0.751
TAGAGT | 0.741
AGGCGT | 0.501
ACAGTC | 0.422
CAGTAA | 0.718
CGGGTA | 0.891

Sequence | binding signal
ACGGGG | 0.642
GCGGGC | 0.699
GTCGTA | 0.575
GGGAAT | 0.818
GAGGTA | 0.674
AGTCAA | 0.631
TGAGCG | 0.61
CGGGGC | 0.591
GTAGGC | 0.696
AAGCCA | 0.853
AGTCCA | 0.688
ACAGTG | 0.459
AGCGAG | 0.611
CTAGAG | 0.814
CACAGA | 0.811
GCGCGG | 0.856
TGGGGA | 0.77
TAGTCG | 0.419
GTTAGG | 0.77
